Assay results

Data taken from PubChem BioAssay AID1508623, deposited by NCATS (2021).

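Change in HTT-promoter-driven luminescence in engineered HEK293 reporter cells after a 24 h treatment, measured at one concentration.
Percent change in reporter signal versus vehicle (0%) down to no light (-100%); more negative values mean stronger inhibition of promoter activity.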

Values are in %.
Common to all entries: at 57.5 µM (top of the series).
Only part of the assay is listed here, not a random draw.

structure: O=C(CN1C(=O)COc2ccc(Cl)cc21)Nc1cccc(C(=O)O)c1
activity change (%): -10.1

structure: COc1cc2c(cc1OC)C(c1ccc(F)cc1)N(c1ccccc1)C(=O)C2 (centres unmarked)
activity change (%): -27.67

structure: Cc1ccc(OCCCCn2c(-c3ccc(Cl)cc3)nc3ccccc3c2=O)cc1
activity change (%): -7.33

structure: COC(=O)c1cc2oc3ccccc3c2n1CC(=O)Nc1cccc(SC)c1
activity change (%): 7.156

structure: COc1ccc(NC(=O)CC2C(=O)N(c3ccc(C)cc3)C(=O)N2C2CCCC2)cc1 (centres unmarked)
activity change (%): -33.43

structure: COc1ccc(NC(=O)c2c(C)oc3ccc(O)c(CN4CCN(C)CC4)c23)cc1Cl
activity change (%): -16.31

structure: COC(=O)c1ccc(NC(=O)CC2C(=O)N(c3cccc(OC)c3)C(=O)N2Cc2cccs2)cc1 (centres unmarked)
activity change (%): -16.78

structure: Cc1ccc2oc(-c3cc(NC(=O)CC(C)C)ccc3Cl)nc2c1
activity change (%): -50.78

structure: COC(=O)CN1C(=O)CSc2ccc(S(=O)(=O)Nc3c(C)cc(C)cc3C)cc21
activity change (%): -22.38

structure: CCCc1cc(=O)[nH]c(Nc2cc(Cl)ccc2OC)n1
activity change (%): -27.66

structure: CCOc1ccc(C2C(=O)N(C3CCCCC3)CC(=O)N2Cc2ccc(F)cc2)cc1OC (centres unmarked)
activity change (%): -29.33

structure: O=S(=O)(Nc1ccc(-c2ccc(N3CCCC3)nn2)cc1)c1ccc(OC(F)(F)F)cc1
activity change (%): -6.893

structure: Cc1ccccc1NC(=O)c1c(C)oc2ccc(O)c(CN3CCCC(C)C3)c12 (centres unmarked)
activity change (%): -36.61

structure: O=C1OC(C(=O)Nc2ccc(Cl)c(C(F)(F)F)c2)Cc2ccccc21 (centres unmarked)
activity change (%): -41.92

structure: CCc1ccccc1NC(=O)c1cnc2sc(N3CCOCC3)nn2c1=O
activity change (%): 3.631

structure: COc1ccc(Cl)cc1S(=O)(=O)Nc1cccc(-c2ccc(N3CCCC3)nn2)c1
activity change (%): -6.611

structure: CCCC(=O)Nc1cccc(-c2nc3ncccc3o2)c1
activity change (%): 13.64

structure: COc1ccc(CNC(=O)Cc2c(C)c3ccc(O)cc3oc2=O)cc1
activity change (%): -7.618

structure: CCOC(=O)c1c(NC(=O)c2cc(CC)on2)sc(C)c1C
activity change (%): -10.15

structure: Cc1nn(CC(=O)N2CCN(c3ccccc3)CC2)c(=O)c2cc3cc(F)ccc3n12
activity change (%): -11.08

structure: CCCc1cc(=O)[nH]c(Nc2cc(C)ccc2OC)n1
activity change (%): -33.65

structure: CCOC(=O)Cn1c(=N)n(CCOc2ccc(OC)cc2)c2ccccc21
activity change (%): -7.728

structure: COc1ccc(-c2cc(C(=O)Nc3cccnc3)no2)cc1OC
activity change (%): -2.913

structure: Cc1nc2scc(C)n2c(=O)c1S(=O)(=O)NCCc1ccccc1
activity change (%): -11.31

structure: CCOC(=O)c1ccc(N2CCN(c3cc(C)ccc3C)CC2)c(NC(=O)Nc2ccc(Cl)cc2)c1
activity change (%): -37.3

structure: CCc1cc(=O)oc2c(C)c3c(cc12)CN(CCc1ccccc1OC)CO3
activity change (%): -25.73

structure: COc1cc(C2C(=O)N(C3CCCCC3)CC(=O)N2Cc2ccc(C)cc2)ccc1OC(C)C (centres unmarked)
activity change (%): -23.04

structure: Cc1ccc(C2Nc3cc(C)c(C)cc3-n3c(-c4ccccc4)c4c(=O)n(C)c(=O)n(C)c4c32)o1 (centres unmarked)
activity change (%): 10.15

structure: Cc1cccc(N2CCN(C(=O)C3CCN(S(=O)(=O)Cc4ccccc4)CC3)CC2)c1C
activity change (%): -30.78

structure: O=S(=O)(Nc1cccc(-c2ccc(N3CCCCCC3)nn2)c1)c1ccc(F)cc1
activity change (%): 16.27

structure: CCCCN1C(=O)CN(C2CCCCCC2)C(=O)C1c1ccc(OC(C)C)c(OC)c1 (centres unmarked)
activity change (%): 29.13

structure: COc1ccc(NC(=O)CC2C(=O)N(c3cccc(C)c3)C(=O)N2Cc2cccnc2)cc1 (centres unmarked)
activity change (%): -5.164

structure: COc1cccc(-c2cc(C(=O)N3CCN(c4ccc(F)cc4)CC3)no2)c1
activity change (%): -16.79

structure: O=S(=O)(Nc1ccc(-c2ccc(N3CCCC3)nn2)cc1)c1cc(F)ccc1F
activity change (%): -9.14

structure: CCCCOc1ccc(S(=O)(=O)Nc2cccc(-c3ccc(N4CCOCC4)nn3)c2)cc1
activity change (%): -3.599

structure: Cc1cc(Nc2ccc(C(=O)O)c(O)c2)n2ncnc2n1
activity change (%): -8.574

structure: COc1ccc(-c2cc(C(=O)N3CCN(c4ccc(F)cc4)CC3)no2)cc1OC
activity change (%): -16.97

structure: O=C(Cn1ncn2c(cc3cc(F)ccc32)c1=O)NC1CCCCC1
activity change (%): -5.355

structure: Cc1cccc(CCNC(=O)c2cc3ccccn3n2)c1
activity change (%): 8.516

structure: O=C(NCCc1ccccc1)c1cc(-c2ccc(Cl)c(Cl)c2)on1
activity change (%): -12.21

structure: CC(C)Oc1ccc(CNC(=O)Cn2c(=O)oc3ccccc32)cc1
activity change (%): -27.61

structure: COc1cccc(-c2cc(C(=O)N3CCN(c4ccccc4OC)CC3)no2)c1
activity change (%): -9.432

structure: CCc1ccc(-n2c(CCC(=O)O)ccc2-c2ccc(F)cc2)cc1
activity change (%): -5.211

structure: COc1ccccc1-c1cc(C(=O)Nc2cc(Cl)ccc2O)no1
activity change (%): 6.596

structure: Cn1c(CNC(=O)CSc2nc(-c3cccc(Cl)c3)nc3cc(=O)[nH]n23)nc2ccccc21
activity change (%): -6.923

structure: Cc1cccc(OCCSc2nc(-c3cccs3)nc3cc(=O)[nH]n23)c1
activity change (%): -11.29

structure: Cc1ccc(OCCn2c(-c3ccc(Cl)cc3)nc3ccccc3c2=O)c(C)c1
activity change (%): -17.03

structure: CCc1nc2sc3c(N4CCC(C)CC4)ncnc3c2c2c1CCCC2
activity change (%): -2.324

structure: COc1ccccc1CNC(=O)C1CCN(S(=O)(=O)Cc2ccccc2)CC1
activity change (%): -6.003

structure: Cc1ccc(S(=O)(=O)Nc2cc3c(cc2N2CCOCC2)n(C)c(=O)n3C)cc1
activity change (%): 5.717

structure: COc1ccc(-c2cc(C(=O)Nc3c(C)n(C)n(-c4ccccc4)c3=O)no2)cc1
activity change (%): -11.12

structure: Cc1nc2ccn(Cc3cccs3)c(=O)c2cc1C(=O)N1CCN(c2ccccc2F)CC1
activity change (%): -33.65

structure: CCCCOC(=O)c1ccc(NS(=O)(=O)c2c(C)nc3scc(C)n3c2=O)cc1
activity change (%): -67.25

structure: CCCc1cc(=O)[nH]c(Nc2cc(C)cc(C)c2)n1
activity change (%): -36.3

structure: CC(C)NC(=O)Cn1ncn2c(cc3cc(F)ccc32)c1=O
activity change (%): -19.88

Some entries from above, unchanged:

structure	activity change (%)
COc1cc(C2C(=O)N(C3CCCCC3)CC(=O)N2Cc2ccc(C)cc2)ccc1OC(C)C (centres unmarked)	-23.04
COc1ccc(-c2cc(C(=O)N3CCN(c4ccc(F)cc4)CC3)no2)cc1OC	-16.97
COC(=O)c1ccc(NC(=O)CC2C(=O)N(c3cccc(OC)c3)C(=O)N2Cc2cccs2)cc1 (centres unmarked)	-16.78
COc1ccc(CNC(=O)Cc2c(C)c3ccc(O)cc3oc2=O)cc1	-7.618
COc1ccc(-c2cc(C(=O)Nc3c(C)n(C)n(-c4ccccc4)c3=O)no2)cc1	-11.12